# Data: PubChem BioAssay AID1439 (NMMLSC, 2008)
# Amino acid sequences for entries named in this document (tags omitted).
# UniProt P09471, whole entry, looked up: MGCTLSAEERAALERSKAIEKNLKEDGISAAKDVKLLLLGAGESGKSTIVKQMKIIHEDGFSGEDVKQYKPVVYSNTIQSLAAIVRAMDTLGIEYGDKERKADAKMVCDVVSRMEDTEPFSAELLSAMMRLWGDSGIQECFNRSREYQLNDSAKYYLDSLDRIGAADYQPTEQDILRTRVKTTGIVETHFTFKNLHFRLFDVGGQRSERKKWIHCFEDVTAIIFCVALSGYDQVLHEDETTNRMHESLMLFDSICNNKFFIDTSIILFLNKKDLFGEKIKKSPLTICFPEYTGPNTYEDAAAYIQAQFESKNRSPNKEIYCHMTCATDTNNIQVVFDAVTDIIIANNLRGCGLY
# Out of some 220,000 compounds screened, about 770 (0.35%) were called active. Inconclusive results, whose numbers are uncertain, are shown with a selection of clear calls. No stated cut-off is given here; in the data, active means binding response below about 49% or above about 150%; inconclusive means no clear call, values can overlap the other calls; inactive means in between.
# Target: Guanine nucleotide-binding protein G(o) subunit alpha (Homo sapiens) (UniProt P09471)
# Assay: RGS7-Galphao binding modulators, primary screen, biochemical, multiplexed bead flow cytometry (AID 1439);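 further: fluorescent Galphao held in activated GDP-AlF4 state binding bead-coupled RGS7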
# Conditions: at 10 µM, actives lie on both sides
row,SMILES,binding response (% of control)
1,CO/N=C/C(=N\Nc1ccc(OC)cc1)C(=O)c1ccc(F)cc1,active: 34.9%
2,O=C(O)c1cccc(N/C(=N\S(=O)(=O)c2ccccc2)c2ccccc2)c1,inconclusive: 118%
3,Cc1nc(CN(C)C(=O)c2cc(COc3ccc4ncccc4c3)on2)cs1,inconclusive: 89.4%
4,Cc1cccc(-[n+]2c(C)cc(C)c3c(=O)[nH]c(=O)[nH]c32)c1,inactive: 102%
5,CC1CCCCN1S(=O)(=O)c1cccc(S(=O)(=O)N2CCOCC2)c1 (configuration not stated),inconclusive: 137%
6,CCNS(=O)(=O)c1ccc(CCC(N)=O)cc1,inconclusive: 96.2%
7,Cc1ccc(/C=C/C(=O)NCc2ccc(S(N)(=O)=O)cc2)o1,inactive: 100%
8,Fc1ccc(-c2nnsc2Sc2ccccn2)cc1,inconclusive: 91.6%
9,Cc1nc([N+](=O)[O-])c(C(=O)OCc2ccccc2C#N)n1C,inactive: 103%
10,COC(=O)C1CCN(C(=O)Cc2ccccc2OC)CC1,inconclusive: 84.2%
11,Clc1ccc(-c2nnc(-c3ccccc3)c(-c3ccccc3)n2)cc1,inconclusive: 226%
12,CC(Oc1ccc(C#N)cc1)C(=O)c1ccc(F)c(F)c1 (configuration not stated),inactive: 98.7%
13,Cc1ccc(CCNC(=O)c2cc(C)nn2-c2ccccc2)cc1,inconclusive: 107%
14,O=C(Nc1nc(-c2cccnc2)cs1)c1ccc([N+](=O)[O-])cc1,inconclusive: 3.28%
15,N#Cc1ccc(OCC(=O)n2cc(C(=O)c3cc(Cl)cc(Cl)c3O)cn2)cc1,inconclusive: 103%
16,COc1cccc(C(=O)c2ncc(C(F)(F)F)cc2Cl)c1,inconclusive: 55.6%
17,O=C1CN(C(=O)COC(=O)/C=C/c2ccc(OC(F)F)cc2)c2ccccc2N1,inactive: 99.6%
18,CC(NCc1ccc(S(N)(=O)=O)cc1)C(=O)N1CCc2ccccc21 (configuration not stated),inconclusive: 92%
19,O=C(Nc1nc(-c2ccc(Br)cc2)cs1)c1cccnc1,inconclusive: 99.8%
20,COc1ccc(S(=O)(=O)n2ccc(-c3ccc4c(c3)CCC(C)(C)O4)n2)cc1,inconclusive: 55.4%
21,Cc1cccc(/C=N/NC(=O)Cn2nccc2C)n1,inactive: 100%
22,CCCCn1c(SCC(=O)N2CCc3ccccc32)nnc1-c1ccncc1,inconclusive: 96%
23,COc1cc(NC2c3ccccc3C(=O)N2Cc2ccccc2Cl)cc(OC)c1OC (configuration not stated),inconclusive: 96%
24,COc1ccc(C2CC(c3ccc(F)cc3)n3nc(NS(C)(=O)=O)nc3N2)cc1 (configuration not stated),inconclusive: 81.9%

# Shown with bars between the fields: part of the list above.
row | SMILES | binding response (% of control)
4 | Cc1cccc(-[n+]2c(C)cc(C)c3c(=O)[nH]c(=O)[nH]c32)c1 | inactive: 102%
12 | CC(Oc1ccc(C#N)cc1)C(=O)c1ccc(F)c(F)c1 (configuration not stated) | inactive: 98.7%
18 | CC(NCc1ccc(S(N)(=O)=O)cc1)C(=O)N1CCc2ccccc21 (configuration not stated) | inconclusive: 92%

# (list continues)

row,SMILES,binding response (% of control)
1,Cc1cccc(NC(=S)NC(C)C(c2ccccc2)N2CCN(C)CC2)c1C (configuration not stated),inactive: 95%
2,CC(=O)Nc1ccccc1C(=O)C(=O)Nc1ccc(C)c(C)c1,inactive: 109%
3,Oc1[nH]c2ccccc2c1N=Nc1nc(Nc2ccccc2)nc(N2CCOCC2)n1,inconclusive: 91.3%
4,CCn1c(=O)c([N+](=O)[O-])c(N2CCN(Cc3ccc4c(c3)OCO4)CC2)c2ccccc21,inconclusive: 208%
5,Cc1ccc([N+](=O)[O-])c(OCCN2C(=O)NC(C)(C)C2=O)c1,inconclusive: 100%
6,CC(=O)N/C(=C/c1ccc(OS(=O)(=O)c2ccc(C)cc2)cc1)C(=O)Nc1ccc(C(=O)O)cc1,inconclusive: 105%
7,O=C(COC(=O)CNS(=O)(=O)c1ccccc1)NC12CC3CC(CC(C3)C1)C2,inconclusive: 100%
8,COc1ccc(/C=N/NC(=O)c2c(C)nc3ccc(Br)cn23)cc1OC,inconclusive: 102%
9,Cc1ccccc1NC(=O)COC(=O)Cc1ccsc1,inactive: 94.9%
10,COc1ccc(S(=O)(=O)N(C)C)cc1NC(=O)CSc1nncs1,inactive: 107%
11,COC(=O)[C@@H](NC(=O)N1CCC(C)CC1)C(C)C,inconclusive: 131%
12,O=C(O)c1ccccc1/C=N/NC(=O)C1CCCCC1,inconclusive: 99.2%
13,COc1ccc(N2C(=O)CC(c3cc(OC)c(OC)c(OC)c3)CC2=O)cc1,inconclusive: 111%
14,O=S(=O)(c1ccccc1)N1CCN(c2nnc(-c3ccccc3)c3ccccc23)CC1,inconclusive: 195%
15,O=C(O)CCCN1C(=O)C(=O)/C(=C(/O)c2ccc(Cl)cc2)C1c1ccccc1 (configuration not stated),inconclusive: 67.5%
16,O=C(O)c1cc(-n2cccc2)ccc1N1CCOCC1,inconclusive: 141%
17,Cc1ccc(C)n1NC(=O)c1ccccc1[N+](=O)[O-],inconclusive: 104%
18,COc1ccc(/C=N/NC(=S)NCC2CCCO2)cc1 (configuration not stated),inconclusive: 115%
19,O=C(Cc1ccccc1)Nc1c(Cl)ccc2nsnc12,inconclusive: 122%
20,Cc1c(O)ccc(/C(Cc2ccc3ccccc3n2)=N\N)c1O,inconclusive: -124%
21,CCNC(=O)COc1cc(C)c(Br)c(C)c1,inconclusive: 75.8%
22,Cc1cc(NC(=S)NC(=O)/C=C/c2ccc(S(=O)(=O)N3CCOCC3)cc2)ccc1Br,inconclusive: 98.9%
23,O=S(=O)(Nc1nc(SCc2ccc(Cl)cc2)n[nH]1)c1ccc(F)cc1,inconclusive: 42.4%
